Taken from: PubChem BioAssay AID652272 (Drosophila RNAi Screening Center, 2013)
Purpose: 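Genome-wide knock-down search for components of Hedgehog signalling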 (primary screen). Cells: Drosophila clone 8 (Cl8) cells. Knock-down reagent: long dsRNA against Drosophila genes. Read-out: 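Plate reader light from a firefly reporter under a ptc promoter fragment that responds to Hedgehog, with Renilla light as transfection reference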. Reading the numbers: firefly Hh reporter signal: higher = more ptc reporter light; Renilla reference signal: higher = more Renilla control light. Active means: 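Hit when the z-score averaged over two replicates is under -2 or over +3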. Calls: active = hit: reporter lowered or raised; inactive = not a hit.
The screen tested about 21,000 reagents; shown is an unselected part of those that have a named target and a result. Of all reagents, 503 (2.4%) are marked active. 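Raw plate light values, not normalised; calls rest on replicate z-scores that were not deposited; hits include reporter decreases as well as increases.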 Names joined by + are all predicted targets of the reagent. Not given: the amount of reagent, the time to read-out.

| gene | dsRNA | firefly Hh reporter signal, replicate 1 | firefly Hh reporter signal, replicate 2 | firefly Hh reporter signal, replicate 3 | Renilla reference signal, replicate 1 | Renilla reference signal, replicate 2 | activity call |
| --- | --- | --- | --- | --- | --- | --- | --- |
| Oda (Ornithine decarboxylase antizyme) | DRSC07626 | 72673 | 37132 | – | 2099 | 3126 | inactive |
| sing + Axs | DRSC19333 | 80278 | 1.73e5 | – | 2965 | 8188 | inactive |
| CG14185 | DRSC10184 | 84461 | 1.30e5 | – | 2909 | 3314 | inactive |
| sws (swiss cheese) | DRSC18843 | 5.07e5 | 6.63e5 | 2.27e5 | 26045 | 3756 | inactive |
| CG15109 | DRSC06536 | 81248 | 58849 | – | 1104 | 4240 | inactive |
| Ir48b (Ionotropic receptor 48b) | DRSC06320 | 1.18e5 | 81912 | – | 2944 | 6048 | inactive |
| UQCR-C2 (Ubiquinol-cytochrome c reductase core protein 2) | DRSC10405 | 82957 | – | – | 4432 | 2304 | inactive |
| Bem46 | DRSC00275 | 81285 | 63450 | – | 1209 | 4811 | inactive |
| scpr-A + scpr-C | DRSC15737 | 79207 | 98967 | – | 3184 | 2877 | inactive |
| alpha-PheRS (Phenylalanyl-tRNA synthetase, alpha-subunit) | DRSC18224 | 64585 | 66412 | – | 1376 | 1944 | inactive |
| Klp61F (Kinesin-like protein at 61F) | DRSC08671 | 61512 | 22491 | – | 1872 | 1912 | inactive |
| Cbp53E (Calbindin 53E) | DRSC07356 | 1.34e5 | 99629 | – | 4891 | 4240 | inactive |
| Six4 | DRSC11881 | 1.19e5 | 1.35e5 | – | 4323 | 3926 | inactive |
| RhoGAP92B (Rho GTPase activating protein at 92B) | DRSC14507 | 6.47e5 | 1.04e5 | – | 31704 | 2667 | inactive |
| RhoGAP92B (Rho GTPase activating protein at 92B) | DRSC15637 | 5.68e5 | 1.25e5 | – | 26675 | 2564 | inactive |
| Stat92E | DRSC16870 | 99403 | 1.05e5 | – | 3954 | 3671 | inactive |
| CG6171 | DRSC15982 | 1.25e5 | 64950 | – | 5027 | 1559 | inactive |
| onecut | DRSC17175 | 85491 | 2.22e5 | – | 3490 | 8293 | inactive |
| Mi-2 | DRSC11222 | 1.18e5 | 1.32e5 | – | 4468 | 3269 | inactive |
| CG7408 | DRSC10841 | 87420 | – | – | 3348 | 2560 | inactive |
| CstF50 (Cleavage stimulation factor 50 kD subunit) | DRSC15434 | 1.30e5 | 54859 | – | 3767 | 2141 | inactive |
| s-cup (stanley-cup) | DRSC06277 | 34375 | 21442 | – | 1329 | 3037 | active |
| s-cup (stanley-cup) | DRSC06278 | 1.04e5 | 53424 | – | 2924 | 4738 | inactive |
